# According to the supplement of paper PMC8728848:
# The other results are listed elsewhere or left out.
# B1: Adiponectin (Rattus norvegicus), Q8K3R4 (protein)
# chain: MLLLQALLFLLILPSHEGITATEGPGALVPPPKETCAGWMAGIPGYPGHNGIPGRDGRDGTPGEKGEKGDAGVLGPKGDPGDAGMTGAEGPRGFPGTPGRKGEPGEAAYMYHSAFSVGLETRVTVPNVPIRFTKIFYNQQNHYDGSTGKFHCNIPGLYYFSYHITVYMKDVKVSLFKKDKAVLFTYDQYQEKNVDQASGSMLLHLEVGDQVWLQVYGEGDNNGLYADNVNDSTFTGFLLYHDTN
# Key:
# Experiment in all cases: glycan array binding signal (z-score within array); higher = stronger binding
# Conditions in all cases: glycan notation: IUPAC condensed, linker removed
# [1] = target: GlcNAc(b1-3)Gal(b1-4)GlcNAc(b1-3)Gal(b1-4)GlcNAc
# In short: (§1)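 Glycan array data came from 3228 arrays in the Consortium for Functional Glycomics database, and only arrays with an available protein sequence were kept. Glycan names were put into IUPAC-condensed notation, and columns mapping to the same glycan were averaged. The binding signal is a within-array Z-score, averaged across arrays of one protein sequence run at different concentrations or buffers and across linkers. A negative Z-score can be read as non-binding.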
# GlcNAc(b1-3)GalNAc = target: GlcNAc(b1-3)GalNAc
# In short: as §1
# GlcNAc(b1-3)Man = target: GlcNAc(b1-3)Man
# In short: as §1
# [2] = target: GlcNAc(b1-3)[GlcNAc(b1-4)][GlcNAc(b1-6)]GlcNAc
# In short: as §1
# [3] = target: GlcNAc(b1-3)[GlcNAc(b1-6)]Gal(b1-4)GlcNAc
# In short: as §1
# [4] = target: GlcNAc(b1-3)[GlcNAc(b1-6)]GalNAc
# In short: as §1
# [5] = target: GlcNAc(b1-4)Gal(b1-4)GlcNAc
# In short: as §1
# GlcNAc(b1-4)GlcNAc = target: GlcNAc(b1-4)GlcNAc
# In short: as §1
# [6] = target: GlcNAc(b1-4)GlcNAc(b1-4)GlcNAc
# In short: as §1
# [7] = target: GlcNAc(b1-4)GlcNAc(b1-4)GlcNAc(b1-4)GlcNAc(b1-4)GlcNAc
# In short: as §1
# [8] = target: GlcNAc(b1-4)GlcNAc(b1-4)GlcNAc(b1-4)GlcNAc(b1-4)GlcNAc(b1-4)GlcNAc
# In short: as §1
# [9] = target: GlcNAc(b1-4)[GlcNAc(b1-6)]GalNAc
# In short: as §1
# [10] = target: GlcNAc(b1-6)Gal(b1-4)GlcNAc
# In short: as §1
# GlcNAc(b1-6)GalNAc = target: GlcNAc(b1-6)GalNAc
# In short: as §1
# GlcNAc3Prop(b1-4)GlcNAc = target: GlcNAc3Prop(b1-4)GlcNAc
# In short: as §1
# [11] = target: GlcNAc6S(b1-3)Gal(b1-4)GlcNAc
# In short: as §1
# Kdn(a2-3)Gal(b1-3)GalNAc = target: Kdn(a2-3)Gal(b1-3)GalNAc
# In short: as §1
# Kdn(a2-3)Gal(b1-3)GlcNAc = target: Kdn(a2-3)Gal(b1-3)GlcNAc
# In short: as §1
# Kdn(a2-3)Gal(b1-4)Glc = target: Kdn(a2-3)Gal(b1-4)Glc
# In short: as §1
# Kdn(a2-3)Gal(b1-4)GlcNAc = target: Kdn(a2-3)Gal(b1-4)GlcNAc
# In short: as §1
# [12] = target: Kdn(a2-3)Gal(b1-4)[Fuc(a1-3)]GlcNAc
# In short: as §1
# Kdn(a2-6)Gal(b1-4)GlcNAc = target: Kdn(a2-6)Gal(b1-4)GlcNAc
# In short: as §1
# [13] = target: Man(a1-2)Man(a1-2)Man(a1-3)Man
# In short: as §1
# [14] = target: Man(a1-2)Man(a1-2)Man(a1-6)[Man(a1-3)]Man
# In short: as §1
# Man(a1-2)Man(a1-3)Man = target: Man(a1-2)Man(a1-3)Man
# In short: as §1
# [15] = target: Man(a1-2)Man(a1-3)[Man(a1-2)Man(a1-6)]Man
# In short: as §1
# [16] = target: Man(a1-2)Man(a1-3)[Man(a1-2)Man(a1-6)]Man(a1-6)[Man(a1-2)Man(a1-2)Man(a1-3)]Man
# In short: as §1
# [17] = target: Man(a1-2)Man(a1-3)[Man(a1-2)Man(a1-6)]Man(a1-6)[Man(a1-2)Man(a1-2)Man(a1-3)]Man(b1-4)GlcNAc(b1-4)GlcNAc
# In short: as §1
# [18] = target: Man(a1-2)Man(a1-3)[Man(a1-6)]Man(a1-6)[Man(a1-2)Man(a1-3)]Man(b1-4)GlcNAc(b1-4)GlcNAc
# In short: as §1
# [19] = target: Man(a1-2)Man(a1-6)[Man(a1-3)]Man(a1-6)[Man(a1-2)Man(a1-2)Man(a1-3)]Man
# In short: as §1
# [20] = target: Man(a1-2)Man(a1-6)[Man(a1-3)]Man(a1-6)[Man(a1-2)Man(a1-2)Man(a1-3)]Man(b1-4)GlcNAc(b1-4)GlcNAc
# In short: as §1
# Man(a1-3)[Man(a1-6)]Man = target: Man(a1-3)[Man(a1-6)]Man
# In short: as §1
# [21] = target: Man(a1-3)[Man(a1-6)]Man(a1-6)[Man(a1-2)Man(a1-3)]Man(b1-4)GlcNAc(b1-4)GlcNAc
# In short: as §1
# [22] = target: Man(a1-3)[Man(a1-6)]Man(a1-6)[Man(a1-3)]Man
# In short: as §1
# [23] = target: Man(a1-3)[Man(a1-6)]Man(a1-6)[Man(a1-3)]Man(b1-4)GlcNAc(b1-4)GlcNAc
# In short: as §1
# [24] = target: Man(a1-3)[Man(a1-6)]Man(b1-4)GlcNAc(b1-4)GlcNAc
# In short: as §1
# Man(a1-6)Man = target: Man(a1-6)Man
# In short: as §1
# Man(b1-4)GlcNAc = target: Man(b1-4)GlcNAc
# In short: as §1
binder,measurement,setting,value
B1,glycan array binding signal (z-score),[1],0.342
same,glycan array binding signal (z-score),GlcNAc(b1-3)GalNAc,-0.902
same,glycan array binding signal (z-score),GlcNAc(b1-3)Man,0.039
same,glycan array binding signal (z-score),[2],-0.82
same,glycan array binding signal (z-score),[3],-0.643
same,glycan array binding signal (z-score),[4],-0.505
same,glycan array binding signal (z-score),[5],-0.325
same,glycan array binding signal (z-score),GlcNAc(b1-4)GlcNAc,0.577
same,glycan array binding signal (z-score),[6],4.87
same,glycan array binding signal (z-score),[7],0.358
same,glycan array binding signal (z-score),[8],-1
same,glycan array binding signal (z-score),[9],-0.632
same,glycan array binding signal (z-score),[10],-0.362
same,glycan array binding signal (z-score),GlcNAc(b1-6)GalNAc,-0.414
same,glycan array binding signal (z-score),GlcNAc3Prop(b1-4)GlcNAc,-0.901
same,glycan array binding signal (z-score),[11],-0.358
same,glycan array binding signal (z-score),Kdn(a2-3)Gal(b1-3)GalNAc,-0.322
same,glycan array binding signal (z-score),Kdn(a2-3)Gal(b1-3)GlcNAc,-0.271
same,glycan array binding signal (z-score),Kdn(a2-3)Gal(b1-4)Glc,0.244
same,glycan array binding signal (z-score),Kdn(a2-3)Gal(b1-4)GlcNAc,-0.171
same,glycan array binding signal (z-score),[12],-0.283
same,glycan array binding signal (z-score),Kdn(a2-6)Gal(b1-4)GlcNAc,0.195
same,glycan array binding signal (z-score),[13],0.004
same,glycan array binding signal (z-score),[14],1.64
same,glycan array binding signal (z-score),Man(a1-2)Man(a1-3)Man,-0.812
same,glycan array binding signal (z-score),[15],-0.568
same,glycan array binding signal (z-score),[16],-0.03
same,glycan array binding signal (z-score),[17],0.792
same,glycan array binding signal (z-score),[18],-0.235
same,glycan array binding signal (z-score),[19],-0.065
same,glycan array binding signal (z-score),[20],-0.443
same,glycan array binding signal (z-score),Man(a1-3)[Man(a1-6)]Man,-0.182
same,glycan array binding signal (z-score),[21],0.494
same,glycan array binding signal (z-score),[22],-0.779
same,glycan array binding signal (z-score),[23],-0.767
same,glycan array binding signal (z-score),[24],-0.101
same,glycan array binding signal (z-score),Man(a1-6)Man,0.14
same,glycan array binding signal (z-score),Man(b1-4)GlcNAc,0.155

# Part of the list above, set out differently:
binder | measurement | setting | value
B1 | glycan array binding signal (z-score) | [8] | -1
same | glycan array binding signal (z-score) | [9] | -0.632
same | glycan array binding signal (z-score) | [10] | -0.362
